Measured values as given in patent US20250281533A1.
Results are given in words; binding and its absence hold for the method and conditions named. Some results given as binding are weak or reduced against the parent protein; the word gives no strength.

T1: recombinant antigen: human mucin1 conjugated with CD4 (human)
T1 sequence: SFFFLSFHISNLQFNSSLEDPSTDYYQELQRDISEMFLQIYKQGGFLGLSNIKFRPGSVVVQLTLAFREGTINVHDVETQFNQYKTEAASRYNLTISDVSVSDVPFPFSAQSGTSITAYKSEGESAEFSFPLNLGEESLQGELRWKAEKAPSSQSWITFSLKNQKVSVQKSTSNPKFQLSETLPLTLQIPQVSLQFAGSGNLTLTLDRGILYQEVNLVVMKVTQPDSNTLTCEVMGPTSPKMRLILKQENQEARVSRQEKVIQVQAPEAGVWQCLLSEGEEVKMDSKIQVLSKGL

B1: scFv 2447_3H08 (scFv)
scFv: EVQLLESGGGLVQPGRSLRLSCAASGFTFDDYAMHWVRQAPGKGLEWVSGISWNSGSIDYADSVKGRFTISRDNSKNTLYLQMNSLRAEDTAVYYCARDRSSGWYTGSFDYWGQGTLVTVSSGGGGSGGGGSGGGASSYELTQDPAVSVALGQTVRITCQGDSLRSYYASWYRQKPGQAPVLVIYGKNNRPSGIPDRFSGSSSGNTASLTIIGAQAEDEADYYCQSRDSSDNRVLFGGGTKVTVL
B2: scFv 2447_2H08 (scFv)
scFv: EVQLVQSGAEVKKPGASVKVSCKASGYTFTNYGISWVRQAPGQGLEWMGWISAYNGNTNYAQKLQGRVTMTTDTSTSTAYMELRSLRSDDTAVYYCARDPHILTGYYRGGWFDPWGQGTTVTVSSGGGGSGGGGSGGGASSYELTQDPAVSVALGQTVTITCQGDSLRTSYAGWLQQKPGQAPVLVLYGKTSRPSGIPDRFSGSTSGNTASLTITGAQAEDEAEYFCHSRDSNDNYLEVVFGGGTKLTVL
B3: scFv 2447_3A08 (scFv)
scFv: EVQLVQSGAEVKKPGASVKVSCKASGYTFTSYGISWVRQAPGQGLEWMGWISAYNGNTNYAQKLQGRVTMTTDTSTSTAYMELRSLRSDDTAVYYCARDRATIFGVVTPFDYWGQGTLVTVSSGGGGSGGGGSGGGASSYELTQDPAVSVALGQTVRITCQGDSIRSYSASWYQQKPGQAPRLVIYGKNNRPSGIPDRVSGSTSGNTASLTVTGAQAEDEADYYCNSRDSSGNRVVFGGGTQLTVL
B4: scFv 2447_3A09 (scFv)
scFv: EVQLLESGGGLVQPGRSLRLSCAATGFTFDDYAMHWVRQAPGKGLEWVSGISWNSGSIGYADSVKGRFTISRDNAKNSLYLQMNSLRAEDTASYYCAKDVSSGWYWYAFDIWGQGTLVTVSSGGGGSGGGGSGGGASSYELTQDPAVSVALGQTVRITCQGDSLRSYYASWYQQKPGQAPVLVIYGKNNRPSGIPGRFSGSSSGNTASLTVTGAQAEDEADYYCNSRDSGGSVVFGGGTKLTVL
B5: scFv 2447_3A12 (scFv)
scFv: EVQLVQSGAEVKKPGASVKVSCKASGYTFTSYGISWVRQAPGQGLEWMGWISAYNGNTNYAQKLRGRVTMTTDTSTSTAYMELRSLRSDDTAVYYCARDPHILTGYYRGGWFDPWGQGTLVTVSSGGGGSGGGGSGGGASSYELTQDPAVSVVLGQTVRITCQGDSLRSYYASWYQQKPGQAPVLVIYGKNNRPSGIPDRFSGSSSGNTASLTITGAQAEDEADYYCNSRDSSGNHRVFGGGTKLTVL
B6: scFv 2447_3B07 (scFv)
scFv: QVQLVESGGVVVQPGGSLRLSCAASGFTFDDYAMHWVRQAPGRGLEWVSLTSWDGGSTYYADSVKGRFTISRDNSKNSLYLQMNSLRAEDTALYYCAKDHSSGWYNGGMDVWGQGTMVTVSSGGGGSGGGGSGGGASSYELTQDPAVSVALGQTVRITCQGDSLRSYYASWYQQKPGQAPVLVIYGKNNRPSGIPDRFSGSSSGNTASLTITGAQAEDEADYYCNSRDSSGNHVVFGGGTKLTVL
B7: scFv 2447_3C08 (scFv)
scFv: EVQLLESGGGLVQPGGSLRLSCAASGFTFDDYAMHWVRQAPGKGLEWVSGISWNSGSIGYADSVKGRFTISRDNAKNSLYLQMNSLRAEDTALYYCAKDRGSGYEGNYYGMDVWGQGTLVTVSSGGGGSGGGGSGGGASSYELTQDPAVSVALGQTVRITCQGDSLRSYYASWYQQKPGQAPVLVIYGKNNRPSGIPDRFSGTTSGNTASLTITGAQAEDEADYYCNSRDSSGNHYVFGTGTKVTVL
B8: scFv 2447_3H02 (scFv)
scFv: EVQLLESGGGLVQPGRSLRLSCAASGFTFDDYAMHWVRQAPGKGLEWVSGISWDSGSIGYADSVKGRFTISRDNAKNSLYLQMNSLRAEDTALYYCAKDVSSGWYWYAFDIWGQGTLVTVSSGGGGSGGGGSGGGASSYELTQDPAVSVALGQTVRITCQGDILRSYYASWYQQKPGQAPVLVIYGKNNRPSGIPDRFSGSSSGNTASLTITGAQAEDEADYYCNSRDSSGNRVVFGGGTKLTVL

Target: T1, recombinant antigen: human mucin1 conjugated with CD4 (human)
Assay: screening of scFv libraries against the recombinant mucin1-CD4 antigen

Row | Binder | binding
1 | B1 | binds
2 | B2 | binds
3 | B3 | binds
4 | B4 | binds
5 | B5 | binds
6 | B6 | binds
7 | B7 | binds
8 | B8 | binds
